# PubChem BioAssay AID445 (National Center for Advancing Translational Sciences (NCATS), 2006)
# The list shows a part of the results. Further columns of the screen follow, without active or inactive calls. Most of these compounds were active or inconclusive in the main read-out, so they are no random draw. Potencies come from curve fits of mixed quality, noted in brackets.
# Experiment: IkB Signaling
# Details: ABC-DLBCL IkBa-CBG/CBR dual luciferase ratio (green luciferase fused to IkBa over red control in OCI-Ly3 lymphoma cells), 4 h
# Method in brief: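 Luminescence ratio of IκBα-fused green versus native red beetle luciferase in OCI-Ly3 cells, 4 h post-doxycycline with compound; red signal alone, scaled from basal (0%) to zero light (-100%), flagged nonspecific or cytotoxic effects.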
# [1] = measured here: control luc red channel unless noted
# [2] = measured here: IkB-luc green channel
# [3] = measured here: control luc red channel
compound,measurement,setting,value
CSc1cccc(Nc2cc(C(=O)NCCc3ccc(Cl)cc3)c3ccccc3n2)c1,AC50,[1],"6.31 µM [falling, partial curve]"
CC1CN(C(=O)N2CCC(C(=O)N3CCN(c4ccccc4)CC3)CC2)c2cc(Cl)ccc2O1 (centres undefined),AC50,[1],"25.1 µM [falling, single point]"
CCOc1ccc2nc(N3CCC(C(=O)Nc4ccccc4CC)CC3)sc2c1,AC50,[1],"12.6 µM [falling, partial curve]"
CCN(CC)S(=O)(=O)c1ccc(Cl)c(C(=O)Nc2nnc(C)s2)c1,AC50,[1],"12.6 µM [falling, partial curve]"
Cc1cc(N2CCCCC2)nc2ccc(NC(=O)/C=C/c3ccc(OC(C)C)cc3)cc12,AC50,[1],"0.398 µM [falling, full curve]"
O=c1oc2ccccc2c(O)c1/C=N/c1ncccn1,AC50,[1],"2.51 µM [falling, full curve]"
COC(=O)c1c(Oc2ccc(OC)cc2)nnc(-c2ccccc2)c1-c1ccccc1,AC50,[1],"15.8 µM [falling, partial curve]"
CCOc1ccccc1CNC(=O)c1ccc(N2Cc3ccccc3Oc3ncccc32)s1,AC50,[1],"10 µM [falling, partial curve]"
COc1ccc(CNC(=O)CCCn2nc(C)c3sc4ccccc4c3c2=O)cc1OC,AC50,[1],"10 µM [falling, partial curve]"
Cc1ccc(CNC(=O)c2cccn2-c2nnc(N3CCCC3)s2)cc1,AC50,[1],"15.8 µM [falling, partial curve, poor fit]"
COc1cccc(Cn2c(C3CC3)nc3ccc(NC(=O)c4ccco4)cc3c2=O)c1,AC50,[1],"3.16 µM [falling, partial curve]"
O=C(Cn1ncc2ccsc2c1=O)N1CCN(c2ccc(F)cc2)CC1,AC50,[1],"25.1 µM [falling, partial curve]"
CCC1CN(C(=O)Nc2cccc3c2CCCC3)c2cc(Cl)ccc2O1 (centres undefined),AC50,[1],"31.6 µM [falling, single point]"
Cc1oc(-c2ccccc2Cl)nc1CS(=O)CC(=O)NCc1ccc(Cl)cc1 (centres undefined),AC50,[1],"25.1 µM [falling, partial curve]"
O=C(Nc1ccc2c(c1)OCO2)c1ccc(Br)s1,AC50,[1],"6.31 µM [falling, partial curve]"
Cc1ccc(COc2ccc(-c3cc(C(F)(F)F)n4nc(C)cc4n3)cc2)cc1,AC50,[1],"0.251 µM [falling, full curve]"
O=S(=O)(Nc1nc2ccccc2nc1Nc1ccccc1Br)c1ccccc1,AC50,[1],"25.1 µM [falling, single point]"
Fc1ccc(-c2ccc(CNCCSc3nnnn3-c3ccccc3)o2)cc1,AC50,[1],"31.6 µM [falling, single point]"
CN1CCc2nc(SCC(=O)Nc3ccc(F)cc3)c(C#N)cc2C1,AC50,[1],"10 µM [falling, partial curve]"
CC1CCc2c(sc(NC(=O)c3cc(-c4cccc(Cl)c4)on3)c2C(N)=O)C1 (centres undefined),AC50,[1],"12.6 µM [falling, partial curve]"
Cc1ccc(NC(=O)Cc2coc3ccc(C(C)C)cc23)c(C)c1,AC50,[1],"31.6 µM [falling, partial curve]"
Cc1oc2c(cc(NS(=O)(=O)c3ccc(C(C)C)cc3)c3ccccc32)c1C(=O)O,AC50,[1],"15.8 µM [falling, partial curve]"
c1ccc(-c2nc(CSc3nnnn3-c3ccccc3)cs2)cc1,AC50,[1],"31.6 µM [falling, single point]"
C=CCn1c(SCC(=O)Nc2ccccc2)nnc1-c1cccc(S(=O)(=O)N2CCOCC2)c1,AC50,[1],"2 µM [falling, partial curve]"
CCN(CC)C(=O)c1sc2c(c1C)c(=O)n(-c1ccc(Cl)c(Cl)c1)c(=O)n2Cc1cc(=O)n2ccccc2n1,AC50,[1],"2.51 µM [rising, partial curve]"
Cc1ccc(S(=O)(=O)c2[nH]c(-c3ccccc3)nc2SCC(N)=O)cc1,AC50,[1],"7.94 µM [falling, partial curve]"
CCOC(=O)N1CCN(C(=O)c2c(C)nn(-c3cccc(C)c3)c2-n2cccc2)CC1,AC50,[2],"0.0398 µM [rising, full curve, poor fit]"
same,AC50,[3],"1.26 µM [rising, partial curve]"
CCc1ccc2[nH]c(=O)c(CN(Cc3ccccc3)Cc3nnnn3Cc3ccco3)cc2c1,AC50,[1],"6.31 µM [falling, partial curve]"
O=C(NCc1ccc2c(c1)CCN2C(=O)c1ccccc1)c1ccccc1,AC50,[1],"39.8 µM [falling, single point]"
COc1ccc(CNC(=O)C2=C(C)C(=O)OC23CCCCC3)cc1,AC50,[1],"31.6 µM [falling, single point]"
CCCSc1nnc2c(n1)OC(c1ccc(Br)s1)Nc1ccccc1-2 (centres undefined),AC50,[1],"0.126 µM [falling, full curve, poor fit]"
COCCOC(=O)C1=C(C)OC(N)=C(C#N)C1c1ccc2c(c1)OCO2 (centres undefined),AC50,[1],"25.1 µM [rising, partial curve] [measured here: IkB-luc green channel]"
COc1ccc(-c2onc(C)c2C)cc1S(=O)(=O)NCC(C)c1ccccc1 (centres undefined),AC50,[1],"31.6 µM [falling, partial curve]"
CCOC(=O)N1CCN(C(=O)CSCC(=O)Nc2nc(-c3ccc4c(c3)OCO4)cs2)CC1,AC50,[1],"15.8 µM [falling, partial curve]"
COc1cccc(N2CCN(C(=O)CCCn3c(=O)[nH]c4ccc(Br)cc4c3=O)CC2)c1,AC50,[1],"20 µM [falling, partial curve]"
Cc1ccc(Nc2c(-c3ccc(Cl)cc3)nc3sccn23)c(C)c1,AC50,[1],"25.1 µM [falling, single point]"
CC(C)Oc1cccc(C(=O)Nc2ccc3oc(-c4cccc(Cl)c4)nc3c2)c1,AC50,[1],"10 µM [falling, partial curve]"
COc1ccc(OC)c(CNS(=O)(=O)c2ccc3[nH]c4c(c3c2)CCCCC4)c1,AC50,[1],"25.1 µM [falling, partial curve]"
CC1(C)CCC(C)(C)c2cc(C(=O)Nc3ccc(C(=O)O)cc3)ccc21,AC50,[1],"39.8 µM [falling, single point]"
CCn1cnc2c1c(=O)n(CC(=O)N1CCc3ccccc31)c(=O)n2Cc1ccccc1,AC50,[1],"20 µM [falling, partial curve]"
Cc1ccc(NC(=O)CSc2nccn2Cc2ccco2)cc1Cl,AC50,[1],"7.94 µM [falling, partial curve]"
COc1cccc(NC(=O)CSCc2cc(=O)c3ccc(C)c(C)c3[nH]2)c1,AC50,[1],"39.8 µM [falling, single point]"
CCOc1ccccc1O[C@@H](c1ccccc1)[C@@H]1CNCCO1,AC50,[1],"39.8 µM [falling, single point]"
O=S(=O)(NC1CCc2ccccc21)c1ccc(S(=O)(=O)N2CCCC2)cc1 (centres undefined),AC50,[1],"20 µM [falling, partial curve]"
CCCCCOC(=O)c1ccc(NC(=O)c2ccco2)cc1,AC50,[1],"25.1 µM [falling, single point]"
Cc1nn2c(=O)cc(COC(=O)c3cccc(NC(=O)COc4ccccc4Cl)c3)nc2s1,AC50,[1],"10 µM [falling, partial curve]"
Cc1ccc(C(=O)c2cn(Cc3cccc(C)c3)c3nc(C)ccc3c2=O)cc1,AC50,[1],"39.8 µM [falling, single point]"
COc1cccc2c1C(=N)c1c(O)c3c(c(O)c1C2=O)C[C@](O)(C(C)=O)C[C@@H]3O[C@H]1C[C@H](N)[C@@H](O)[C@H](C)O1,AC50,[1],"2.51 µM [falling, partial curve]"
Cc1ccc(NC(=O)CSc2ncc(S(=O)(=O)c3ccc(C(C)C)cc3)c(=O)[nH]2)cc1C,AC50,[1],"0.251 µM [falling, full curve, poor fit]"
Cc1ccc(CNC(=O)c2nc(SCc3ccc(F)cc3)ncc2Cl)cc1,AC50,[1],"1.26 µM [rising, partial curve]"
Cc1cc(C)n2c(Nc3ccc4c(c3)OCCO4)c(-c3ccc(Cl)cc3)nc2n1,AC50,[1],"25.1 µM [falling, single point]"
COC(=O)c1cc(S(=O)(=O)N2CCN(c3ccc(OC)cc3)CC2)c[nH]1,AC50,[1],"10 µM [falling, partial curve]"
CC(C)n1c(-c2ccc(N(C)C)cc2)nc2ccccc21,AC50,[2],"39.8 µM [rising, single point]"
same,AC50,[3],"25.1 µM [falling, partial curve]"
Cc1cc(C(=O)OCC(=O)NCc2ccco2)c(C)n1-c1ccccc1,AC50,[1],"7.94 µM [rising, partial curve] [measured here: IkB-luc green channel]"
Cc1ccc(-n2c(C)cc(C(=O)CSc3nncs3)c2C)cc1,AC50,[1],"25.1 µM [falling, partial curve]"
C=CCc1cccc(CNc2nc3ccccc3n2CCC)c1O,AC50,[1],"25.1 µM [falling, partial curve]"
CCCCSC1=C(C#N)C(c2ccccc2C)C(C(=O)OCC)C(=O)N1 (centres undefined),AC50,[1],"15.8 µM [falling, partial curve]"
COCCn1c(N)c(C(=O)OCc2ccccc2)c2nc3ccccc3nc21,AC50,[1],"12.6 µM [falling, partial curve]"
Cn1c(CCNC(=O)c2ccco2)nc2cc(NS(=O)(=O)c3ccc(Cl)cc3)ccc21,AC50,[1],"3.98 µM [falling, full curve, poor fit]"
COC(=O)C1=C(N)Oc2cc(C)n(CCc3ccccc3)c(=O)c2C1c1cccnc1 (centres undefined),AC50,[1],"12.6 µM [falling, partial curve]"
COc1ccc(-c2cc3ccc(O)c(CN4CCC(C)CC4)c3oc2=O)cc1,AC50,[1],"5.01 µM [rising, single point]"
O=C(Nc1ccc2oc(-c3cccnc3)nc2c1)c1ccc(-c2ccccc2OC(F)(F)F)o1,AC50,[1],"0.316 µM [falling, full curve, poor fit]"

# Laid out differently: entries from further up
compound | measurement | setting | value
Cc1ccc(CNC(=O)c2cccn2-c2nnc(N3CCCC3)s2)cc1 | AC50 | [1] | 15.8 µM [falling, partial curve, poor fit]
COc1cccc(Cn2c(C3CC3)nc3ccc(NC(=O)c4ccco4)cc3c2=O)c1 | AC50 | [1] | 3.16 µM [falling, partial curve]
O=C(Cn1ncc2ccsc2c1=O)N1CCN(c2ccc(F)cc2)CC1 | AC50 | [1] | 25.1 µM [falling, partial curve]
CCC1CN(C(=O)Nc2cccc3c2CCCC3)c2cc(Cl)ccc2O1 (centres undefined) | AC50 | [1] | 31.6 µM [falling, single point]
